Experimental data: the supplement of paper PMC10331698
± gives the standard deviation of the averaged measurements. Small differences around the control level are noise.

Legend:
Experiment in all cases: level (log10 ratio to DMSO vehicle control); higher = higher biomarker level / cell amount than vehicle control
Perfluoro-1-iodohexane = compound: FC(F)(F)C(F)(F)C(F)(F)C(F)(F)C(F)(F)C(F)(F)I [Perfluoro-1-iodohexane]; settings: in DMSO
Description: (§1)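 BioMAP Diversity Plus panel of 12 human primary cell co-culture systems (3C, 4H, LPS, SAg, BT, BF4T, BE3C, CASM3C, HDF3CGF, KF3CT, MyoF, Mphg). Compounds were added 1 h before stimulation and left for 24 h (MyoF 48 h; BT 72 h for soluble read-outs or 6 d for IgG). Biomarkers were read by ELISA, cytotoxicity by SRB, PBMC viability and proliferation by Alamar Blue. Each well value was divided by the mean of 8 DMSO control wells on the same plate and log10 transformed; duplicate blinded samples were tested at 4 concentrations.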

[1] = compound: C=CC(=O)OCC(F)(F)C(F)(F)C(F)(F)COC(=O)C=C [1H,1H,5H,5H-Perfluoro-1,5-pentanediol diacrylate]; settings: 2200 nM; in DMSO
Description: as §1

Hexafluoroamylene glycol = compound: OCC(F)(F)C(F)(F)C(F)(F)CO [Hexafluoroamylene glycol]; settings: 2200 nM; in DMSO
Description: as §1

[2] = compound: O=C(O)C(F)(F)C(F)(F)C(F)(F)C(F)(F)C(F)(F)C(F)(F)C(F)(F)C(F)(F)C(F)(F)C(F)(F)C(F)(F)C(F)(F)C(F)(F)F [Perfluorotetradecanoic acid]; settings: in DMSO
Description: as §1

[3] = compound: C=CC(=O)OCCC(F)(F)C(F)(F)C(F)(F)C(F)(F)F [2-(Perfluorobutyl)ethyl acrylate]; settings: 2200 nM; in DMSO
Description: as §1

[4] = compound: FC(F)(F)C(F)(C(F)(F)F)C(F)(F)C(F)(F)CC1CO1 [3-(Perfluoro-3-methylbutyl)-1,2-propenoxide]; settings: in DMSO
Description: as §1

[5] = compound: O=C(O)C=C(C(F)(F)F)C(F)(F)F [3,3-Bis(trifluoromethyl)-2-propenoic acid]; settings: in DMSO
Description: as §1

[6] = compound: O=S(=O)(O)C(F)(F)C(F)(F)C(F)(F)C(F)(F)C(F)(F)C(F)(F)F [Perfluorohexanesulfonic acid]; settings: 2200 nM; in DMSO
Description: as §1

[7] = compound: O=C(Cl)C(F)(F)C(F)(F)C(F)(F)C(=O)Cl [Hexafluoroglutaryl chloride]; settings: 2200 nM; in DMSO
Description: as §1

[8] = compound: C=CC(=O)OCCC(F)(F)C(F)(F)C(F)(F)C(F)(F)C(F)(F)C(F)(F)C(F)(F)C(F)(F)F [8:2 Fluorotelomer acrylate]; settings: 2200 nM; in DMSO
Description: as §1

[9] = compound: OCCCC(F)(F)C(F)(F)C(F)(F)C(F)(F)C(F)(F)C(F)(F)C(F)(F)F [7:3 Fluorotelomer alcohol]; settings: 2200 nM; in DMSO
Description: as §1

[10] = compound: FC(F)(I)C(F)(F)C(F)(F)C(F)(F)C(F)(F)C(F)(F)I [1,6-Diiodoperfluorohexane]; settings: 2200 nM; in DMSO
Description: as §1

[11] = compound: O=S(=O)(O)CCC(F)(F)C(F)(F)C(F)(F)C(F)(F)F [4:2 Fluorotelomer sulfonic acid]; settings: 2200 nM; in DMSO
Description: as §1

Test System	level (log10) (Perfluoro-1-iodohexane; 2200 nM)	level (log10) (Perfluoro-1-iodohexane; 6700 nM)	level (log10) (Perfluoro-1-iodohexane; 20000 nM)	level (log10) (Perfluoro-1-iodohexane; 60000 nM)	level (log10) [1]	level (log10) (Hexafluoroamylene glycol)	level (log10) ([2]; 740 nM)	level (log10) ([2]; 2200 nM)	level (log10) [3]	level (log10) ([4]; 740 nM)	level (log10) ([4]; 2200 nM)	level (log10) ([5]; 2200 nM)	level (log10) ([5]; 6700 nM)	level (log10) ([5]; 20000 nM)	level (log10) ([5]; 60000 nM)	level (log10) [6]	level (log10) [7]	level (log10) [8]	level (log10) [9]	level (log10) [10]	level (log10) [11]
lMphg:IL-1alpha	0.0225 ± 0.015	0.008 ± 0.0057	0.0525 ± 0.019	0.027 ± 0.011	0.061 ± 0.011	-0.006 ± 0.027	0.0155 ± 0.03	-0.0065 ± 0.019	0.0145 ± 0.076	-0.0135 ± 0.03	-0.0505 ± 0.019	-0.0385 ± 0.023	-0.073 ± 0.068	-0.0565 ± 0.052	-0.043 ± 0.075	0.0175 ± 0.077	-0.034 ± 0.0085	-0.003 ± 0.05	0.0225 ± 0.018	-0.001 ± 0.12	0.04 ± 0.09
MyoF:Collagen III	0.0005 ± 0.011	-0.0225 ± 0.0064	-0.039 ± 0.0057	-0.132 ± 0.036	-0.017 ± 0.025	-0.0215 ± 0.026	-0.0055 ± 0.0021	-0.0005 ± 0.016	-0.008 ± 0.03	-0.0185 ± 0.015	-0.001 ± 0.025	-0.019 ± 0.018	-0.021 ± 0.0014	-0.0335 ± 0.00071	-0.064 ± 0.011	-0.0245 ± 0.013	-0.015	-0.001 ± 0.0099	-0.0015 ± 0.0021	-0.0495 ± 0.039	-0.029 ± 0.0057
HDF3CGF:Proliferation 72hr	-0.0325 ± 0.015	-0.0315 ± 0.019	-0.028 ± 0.0014	-0.468 ± 0.57	-0.642 ± 0.0085	-0.067 ± 0.021	0.0265 ± 0.054	0.0285 ± 0.037	-0.0355 ± 0.093	0.0035 ± 0.042	-0.008 ± 0.023	0.046 ± 0.04	-0.0325 ± 0.021	-0.086 ± 0.069	-0.24 ± 0.066	0.0255 ± 0.083	0.004 ± 0.0014	-0.0395 ± 0.0035	-0.0195 ± 0.029	-0.221 ± 0.05	-0.0325 ± 0.06
